Experimental data: PubChem BioAssay AID1259306 (Sanger Institute, 2017)
Assay: 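Kinases needed for viability and knock-downs that synergise with BYL719, cetuximab or trametinib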 (primary screen). Cells: human SNU-C5 colorectal cancer cells. Reagents: siRNA pool against human genes. Conditions: DMSO vehicle alone, or one anchor drug: BYL719 at 1 µM, cetuximab at 5 µg/ml or trametinib at 10 nM, given 24 h into the assay. Measurement: 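Replicate-averaged viability against non-targeting pool control, given as fraction and robust z-score; separate synergy scores for BYL719, cetuximab and trametinib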. Reading the numbers: robust z-score, knock-down alone and viability, knock-down alone: higher = more viable cells; synergy score with BYL719: higher = stronger synthetic lethality with BYL719; synergy score with cetuximab: higher = stronger synthetic lethality with cetuximab; synergy score with trametinib: higher = stronger synthetic lethality with trametinib. Hit rule: 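Essential if knock-down without drug gives a robust z-score under -3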. Calls: active = essential (knock-down alone); inactive = no change alone.
Here is an unselected part of 794 deposited reagents. 11 of all reagents (1.4%) count as active. 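Calls reflect knock-down alone; synergy scores play no part, so knock-downs synergising with a drug can be called no change.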 Viability is capped at 1. Reagent sequences are not shown. Not given: the amount of reagent, the time to read-out.

Gene	robust z-score, knock-down alone	viability, knock-down alone	synergy score with BYL719	synergy score with cetuximab	synergy score with trametinib	call
STK35 (GeneID 140901)	0.321	0.908	-0.00688	0.191	-0.0161	inactive
FN1 (GeneID 2335)	0.989	1	0	0	0.0258	inactive
FES (GeneID 2242)	-2.61	0.504	-0.257	0.0476	-0.293	inactive
ASPM (GeneID 259266)	-0.0365	0.859	-0.141	-0.141	-0.0706	inactive
PLK1 (GeneID 5347)	-3.42	0.393	-0.00713	-0.0589	0.000477	active
MAP3K15 (GeneID 389840)	-1.64	0.638	-0.1	-0.23	-0.0374	inactive
PIP5KL1 (GeneID 138429)	0.989	1	0.0979	0.101	-0.235	inactive
CDKN1A (GeneID 1026)	0.989	1	0.0227	0	-0.0799	inactive
OBSCN (GeneID 84033)	-0.875	0.743	-0.148	-0.0174	-0.125	inactive
CASP8 (GeneID 841)	0.989	1	0.0851	0	-0.141	inactive
PKN1 (GeneID 5585)	0.564	0.942	0.0657	-0.0585	-0.0639	inactive
FLT1 (GeneID 2321)	0.989	1	0.0301	0	-0.119	inactive
NAGK (GeneID 55577)	-1.63	0.639	-0.235	-0.0116	-0.211	inactive
UCK1 (GeneID 83549)	0.989	1	0.155	0	0.0317	inactive
LMTK2 (GeneID 22853)	-0.0491	0.857	-0.0453	-0.054	-0.0225	inactive
BMPR2 (GeneID 659)	0.684	0.958	0.079	0.0468	-0.0135	inactive
PIK3CD (GeneID 5293)	0.989	1	0.197	0.152	0.0642	inactive
GAK (GeneID 2580)	-0.0947	0.851	0.0982	0.0762	-0.167	inactive
CDK14 (GeneID 5218)	-0.955	0.732	-0.0371	0.193	-0.0375	inactive
PHKA2 (GeneID 5256)	0.234	0.896	0.113	-0.00337	0.154	inactive
